Consider 36 targets from the supplement of paper PMC10849652.

Amino acid sequences for entries named in this document (tags omitted). A change or cut given only in a name is not applied to a line headed by its entry.
UniProt Q9Y6N5: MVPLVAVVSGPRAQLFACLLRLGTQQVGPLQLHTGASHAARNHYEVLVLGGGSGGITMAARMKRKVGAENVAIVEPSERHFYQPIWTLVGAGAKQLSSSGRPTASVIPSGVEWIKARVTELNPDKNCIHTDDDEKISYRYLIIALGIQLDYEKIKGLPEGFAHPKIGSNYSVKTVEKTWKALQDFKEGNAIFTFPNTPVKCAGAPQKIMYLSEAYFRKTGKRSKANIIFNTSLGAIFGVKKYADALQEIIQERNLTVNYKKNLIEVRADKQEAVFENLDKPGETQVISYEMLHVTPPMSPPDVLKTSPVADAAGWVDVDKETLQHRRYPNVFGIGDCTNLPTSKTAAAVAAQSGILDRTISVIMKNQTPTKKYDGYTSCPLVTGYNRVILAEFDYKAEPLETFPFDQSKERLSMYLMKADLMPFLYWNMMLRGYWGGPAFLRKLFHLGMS
UniProt Q9C0H9: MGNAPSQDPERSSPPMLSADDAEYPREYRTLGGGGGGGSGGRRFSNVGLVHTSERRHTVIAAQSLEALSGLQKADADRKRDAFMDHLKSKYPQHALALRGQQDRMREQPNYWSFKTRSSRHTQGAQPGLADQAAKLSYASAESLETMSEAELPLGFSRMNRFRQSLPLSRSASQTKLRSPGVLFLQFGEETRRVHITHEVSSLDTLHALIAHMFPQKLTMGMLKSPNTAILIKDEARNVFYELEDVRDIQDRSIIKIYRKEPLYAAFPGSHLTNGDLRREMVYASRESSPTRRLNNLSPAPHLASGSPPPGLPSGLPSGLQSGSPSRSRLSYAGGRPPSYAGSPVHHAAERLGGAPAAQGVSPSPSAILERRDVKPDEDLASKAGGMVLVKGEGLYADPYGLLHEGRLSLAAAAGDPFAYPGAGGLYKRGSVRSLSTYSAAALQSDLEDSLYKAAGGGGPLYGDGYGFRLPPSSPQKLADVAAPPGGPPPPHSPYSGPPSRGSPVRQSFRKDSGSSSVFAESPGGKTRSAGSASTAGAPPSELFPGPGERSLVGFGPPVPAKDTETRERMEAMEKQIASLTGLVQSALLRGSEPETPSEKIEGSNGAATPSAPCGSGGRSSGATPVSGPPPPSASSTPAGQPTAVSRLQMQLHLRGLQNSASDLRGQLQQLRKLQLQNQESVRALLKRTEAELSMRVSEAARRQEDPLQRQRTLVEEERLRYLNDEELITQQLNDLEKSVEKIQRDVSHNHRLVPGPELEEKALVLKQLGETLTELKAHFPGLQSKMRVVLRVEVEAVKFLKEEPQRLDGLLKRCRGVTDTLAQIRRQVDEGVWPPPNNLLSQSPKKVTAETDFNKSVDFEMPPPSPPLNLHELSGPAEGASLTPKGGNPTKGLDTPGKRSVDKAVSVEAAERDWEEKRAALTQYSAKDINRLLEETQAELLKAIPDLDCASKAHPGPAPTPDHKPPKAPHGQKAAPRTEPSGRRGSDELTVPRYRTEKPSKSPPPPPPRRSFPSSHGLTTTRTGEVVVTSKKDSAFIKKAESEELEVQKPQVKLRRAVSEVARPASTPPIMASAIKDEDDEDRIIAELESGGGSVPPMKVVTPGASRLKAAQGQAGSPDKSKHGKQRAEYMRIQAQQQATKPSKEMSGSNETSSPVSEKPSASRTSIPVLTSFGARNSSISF
UniProt Q15532, whole entry, looked up: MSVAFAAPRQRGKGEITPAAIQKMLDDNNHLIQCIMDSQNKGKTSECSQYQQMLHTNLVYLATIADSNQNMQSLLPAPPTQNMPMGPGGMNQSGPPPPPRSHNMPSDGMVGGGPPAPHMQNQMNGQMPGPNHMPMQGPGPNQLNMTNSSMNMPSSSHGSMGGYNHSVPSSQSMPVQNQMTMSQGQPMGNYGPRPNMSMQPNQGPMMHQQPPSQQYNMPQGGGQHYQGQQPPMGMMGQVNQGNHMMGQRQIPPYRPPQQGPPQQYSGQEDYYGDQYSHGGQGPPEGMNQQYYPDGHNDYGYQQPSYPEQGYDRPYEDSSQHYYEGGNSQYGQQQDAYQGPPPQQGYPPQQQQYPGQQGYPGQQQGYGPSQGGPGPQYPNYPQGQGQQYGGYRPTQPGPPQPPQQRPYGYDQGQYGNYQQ
UniProt Q9H8P0: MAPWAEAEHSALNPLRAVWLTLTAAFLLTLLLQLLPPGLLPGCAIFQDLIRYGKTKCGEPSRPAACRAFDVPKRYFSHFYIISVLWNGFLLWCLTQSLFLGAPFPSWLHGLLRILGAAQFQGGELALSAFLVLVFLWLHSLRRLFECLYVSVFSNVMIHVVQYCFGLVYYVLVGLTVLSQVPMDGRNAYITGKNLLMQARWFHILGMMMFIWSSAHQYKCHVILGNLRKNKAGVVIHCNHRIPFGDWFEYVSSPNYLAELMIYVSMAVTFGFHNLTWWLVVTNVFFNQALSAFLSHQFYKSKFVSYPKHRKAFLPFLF
UniProt P35325: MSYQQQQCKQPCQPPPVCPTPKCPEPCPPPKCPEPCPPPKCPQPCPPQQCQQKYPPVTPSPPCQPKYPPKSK
UniProt O75716, whole entry, looked up: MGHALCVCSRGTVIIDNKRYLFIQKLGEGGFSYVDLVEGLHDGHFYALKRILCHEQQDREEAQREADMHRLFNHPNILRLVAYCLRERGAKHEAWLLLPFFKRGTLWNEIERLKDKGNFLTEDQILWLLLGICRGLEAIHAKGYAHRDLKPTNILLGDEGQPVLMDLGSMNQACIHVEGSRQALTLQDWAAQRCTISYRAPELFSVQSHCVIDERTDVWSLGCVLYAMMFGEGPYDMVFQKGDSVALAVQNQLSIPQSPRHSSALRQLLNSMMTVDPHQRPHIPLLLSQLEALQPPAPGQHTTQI
UniProt Q9Y365: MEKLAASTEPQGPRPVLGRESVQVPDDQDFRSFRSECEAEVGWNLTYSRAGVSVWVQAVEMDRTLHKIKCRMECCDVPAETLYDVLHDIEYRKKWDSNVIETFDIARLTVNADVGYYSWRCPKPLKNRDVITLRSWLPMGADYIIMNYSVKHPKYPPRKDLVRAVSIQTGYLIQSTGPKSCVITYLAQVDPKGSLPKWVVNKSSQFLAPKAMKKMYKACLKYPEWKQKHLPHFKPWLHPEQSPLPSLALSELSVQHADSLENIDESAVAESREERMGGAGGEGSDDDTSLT
UniProt Q9BWG4: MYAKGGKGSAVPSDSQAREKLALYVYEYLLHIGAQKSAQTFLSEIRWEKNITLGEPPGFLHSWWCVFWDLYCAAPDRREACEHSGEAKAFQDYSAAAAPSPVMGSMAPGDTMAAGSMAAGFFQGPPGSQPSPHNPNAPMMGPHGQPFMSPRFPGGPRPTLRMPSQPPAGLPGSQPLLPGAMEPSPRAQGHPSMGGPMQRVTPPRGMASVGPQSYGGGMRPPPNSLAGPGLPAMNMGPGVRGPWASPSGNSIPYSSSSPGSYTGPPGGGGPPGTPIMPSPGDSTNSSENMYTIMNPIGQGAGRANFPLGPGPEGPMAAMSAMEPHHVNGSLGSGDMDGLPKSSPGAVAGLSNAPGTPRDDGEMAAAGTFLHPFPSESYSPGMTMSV
UniProt P36956: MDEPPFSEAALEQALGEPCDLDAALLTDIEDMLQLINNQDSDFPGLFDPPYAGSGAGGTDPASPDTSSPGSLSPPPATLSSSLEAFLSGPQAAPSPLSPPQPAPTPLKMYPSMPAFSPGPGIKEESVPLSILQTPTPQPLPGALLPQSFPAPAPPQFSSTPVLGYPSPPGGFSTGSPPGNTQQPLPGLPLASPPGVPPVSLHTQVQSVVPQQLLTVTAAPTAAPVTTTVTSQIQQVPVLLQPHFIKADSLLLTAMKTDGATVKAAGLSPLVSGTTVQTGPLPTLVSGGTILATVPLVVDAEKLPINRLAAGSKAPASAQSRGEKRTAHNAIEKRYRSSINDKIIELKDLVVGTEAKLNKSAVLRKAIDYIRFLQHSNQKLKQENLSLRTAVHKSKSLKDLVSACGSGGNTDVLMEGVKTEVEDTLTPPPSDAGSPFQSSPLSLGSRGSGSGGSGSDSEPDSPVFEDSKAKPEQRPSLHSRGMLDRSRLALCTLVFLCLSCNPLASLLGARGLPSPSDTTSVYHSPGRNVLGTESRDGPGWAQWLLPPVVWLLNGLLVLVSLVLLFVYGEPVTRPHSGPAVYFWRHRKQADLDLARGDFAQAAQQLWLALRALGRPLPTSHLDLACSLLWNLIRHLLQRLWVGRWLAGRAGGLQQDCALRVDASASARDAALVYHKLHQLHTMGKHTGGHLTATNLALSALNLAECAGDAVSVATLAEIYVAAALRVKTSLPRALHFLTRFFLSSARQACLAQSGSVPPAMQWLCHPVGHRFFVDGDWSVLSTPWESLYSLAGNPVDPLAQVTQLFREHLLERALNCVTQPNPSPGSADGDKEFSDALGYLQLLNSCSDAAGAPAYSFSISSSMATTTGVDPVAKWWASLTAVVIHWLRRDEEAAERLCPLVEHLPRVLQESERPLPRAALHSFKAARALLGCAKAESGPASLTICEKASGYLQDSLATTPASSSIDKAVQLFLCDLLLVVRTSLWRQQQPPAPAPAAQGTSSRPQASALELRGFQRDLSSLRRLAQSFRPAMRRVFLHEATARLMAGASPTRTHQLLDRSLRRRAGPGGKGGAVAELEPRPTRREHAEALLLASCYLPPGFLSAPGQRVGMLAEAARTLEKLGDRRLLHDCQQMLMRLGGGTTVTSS
UniProt O43278: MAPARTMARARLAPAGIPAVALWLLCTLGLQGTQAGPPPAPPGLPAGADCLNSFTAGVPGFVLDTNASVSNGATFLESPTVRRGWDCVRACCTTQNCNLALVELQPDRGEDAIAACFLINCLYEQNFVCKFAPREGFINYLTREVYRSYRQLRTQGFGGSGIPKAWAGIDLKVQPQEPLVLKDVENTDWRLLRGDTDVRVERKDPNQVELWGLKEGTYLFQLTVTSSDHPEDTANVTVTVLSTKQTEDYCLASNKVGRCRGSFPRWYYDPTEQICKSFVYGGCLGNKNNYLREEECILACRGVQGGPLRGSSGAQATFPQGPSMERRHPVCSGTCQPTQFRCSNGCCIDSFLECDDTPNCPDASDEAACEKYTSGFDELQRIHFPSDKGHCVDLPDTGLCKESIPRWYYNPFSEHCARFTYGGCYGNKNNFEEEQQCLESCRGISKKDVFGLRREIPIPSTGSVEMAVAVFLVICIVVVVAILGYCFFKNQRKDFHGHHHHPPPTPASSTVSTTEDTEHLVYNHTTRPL
UniProt Q9P246, whole entry, looked up: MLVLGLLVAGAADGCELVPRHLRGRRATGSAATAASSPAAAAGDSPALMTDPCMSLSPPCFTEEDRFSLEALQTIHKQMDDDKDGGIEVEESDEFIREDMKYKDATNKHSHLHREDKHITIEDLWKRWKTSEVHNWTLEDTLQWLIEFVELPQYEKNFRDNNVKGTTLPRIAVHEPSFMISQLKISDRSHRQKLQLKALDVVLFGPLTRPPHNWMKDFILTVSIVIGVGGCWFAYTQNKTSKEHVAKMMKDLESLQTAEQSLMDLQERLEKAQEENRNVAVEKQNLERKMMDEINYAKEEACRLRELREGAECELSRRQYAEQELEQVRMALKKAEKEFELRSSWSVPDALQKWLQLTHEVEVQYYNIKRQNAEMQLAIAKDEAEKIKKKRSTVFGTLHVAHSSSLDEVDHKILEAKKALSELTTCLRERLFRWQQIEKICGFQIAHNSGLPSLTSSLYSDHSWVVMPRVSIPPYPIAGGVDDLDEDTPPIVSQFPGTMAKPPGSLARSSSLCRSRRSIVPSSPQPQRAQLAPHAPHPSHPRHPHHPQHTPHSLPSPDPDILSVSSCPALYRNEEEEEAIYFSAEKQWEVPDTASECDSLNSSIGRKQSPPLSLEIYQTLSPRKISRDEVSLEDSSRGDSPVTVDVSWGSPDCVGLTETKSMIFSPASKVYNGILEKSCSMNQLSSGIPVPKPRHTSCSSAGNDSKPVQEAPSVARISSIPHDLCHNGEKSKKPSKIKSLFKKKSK
UniProt Q9BYN0: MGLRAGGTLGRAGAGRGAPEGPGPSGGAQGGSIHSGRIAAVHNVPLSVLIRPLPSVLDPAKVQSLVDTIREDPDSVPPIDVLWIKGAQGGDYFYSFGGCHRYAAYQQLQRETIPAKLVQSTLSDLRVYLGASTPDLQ
UniProt Q9NUQ6: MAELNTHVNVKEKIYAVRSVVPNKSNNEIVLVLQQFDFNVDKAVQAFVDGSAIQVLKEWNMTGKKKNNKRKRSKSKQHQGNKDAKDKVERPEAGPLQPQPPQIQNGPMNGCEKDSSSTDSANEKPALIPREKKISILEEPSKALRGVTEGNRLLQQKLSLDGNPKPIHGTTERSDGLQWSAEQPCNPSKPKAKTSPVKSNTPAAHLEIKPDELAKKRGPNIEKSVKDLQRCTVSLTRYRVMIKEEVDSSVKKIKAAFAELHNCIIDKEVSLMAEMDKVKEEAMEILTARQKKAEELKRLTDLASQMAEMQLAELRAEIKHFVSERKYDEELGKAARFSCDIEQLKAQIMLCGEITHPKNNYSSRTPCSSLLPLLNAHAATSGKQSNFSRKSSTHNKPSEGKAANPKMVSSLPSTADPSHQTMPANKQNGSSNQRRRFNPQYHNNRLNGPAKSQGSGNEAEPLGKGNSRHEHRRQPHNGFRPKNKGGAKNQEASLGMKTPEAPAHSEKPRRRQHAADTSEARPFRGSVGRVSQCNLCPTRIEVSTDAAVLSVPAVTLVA

This is one part of the list.

Compound in one experiment: C#Cc1cccc(Nc2ncnc3cc(OCCOC)c(OCCOC)cc23)c1 [erlotinib]
Kind of experiment: log2 fold change, soluble protein after heating vs DMSO (PISA); higher = thermal stabilisation; K562 cells, 10 uM, 30 min; active = over 0.2 and 3.5 SD of the protein, either way, in both replicates (recomputed). The essentials: (§1)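 K562 cells at 2×10^6 cells/mL were exposed to 10 μM compound for 30 min, then aliquots were heated for 3 min across 48°C-58°C, pooled, and extracted in PBS containing 0.5% NP-40 at 4°C. The supernatant after 21,000xg for 90 min was taken as soluble protein and measured by TMTpro 16plex LC-MS/MS with channel sums equalised. Thermal stability is reported relative to control samples, with values from duplicates. Fold changes are given on a log2 scale.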
Take STK17B (UniProt O94768): the log2 fold change is inactive: 0.128.
As to SQOR (UniProt Q9Y6N5), the log2 fold change is inactive: 0.042.
On to SRCIN1 (UniProt Q9C0H9), for which the log2 fold change was inactive: 0.004.
With SS18 (UniProt Q15532), the log2 fold change was inactive: -0.084.
Regarding SRD5A3 (UniProt Q9H8P0), the log2 fold change is inactive: 0.055.
Consider SPRR2B (UniProt P35325), for which the log2 fold change is inactive: 0.107.
For the target STK16 (UniProt O75716), the log2 fold change is inactive: -0.095.
With STARD10 (UniProt Q9Y365), the log2 fold change is inactive: 0.165.
On the same count and under the same terms, under SSBP4 (UniProt Q9BWG4) stands inactive: 0.08; under SREBF1 isoform 4 (UniProt P36956), inactive: 0.034; under STAB1 (UniProt Q9NY15), inactive: 0.775.
Consider SPIN4 (UniProt Q56A73), for which the log2 fold change is inactive: -0.125.
As for SPPL3 (UniProt Q8TCT6), the log2 fold change is inactive: -0.008.
SPDL1 (UniProt Q96EA4): the log2 fold change is inactive: 0.075.
STC2 (UniProt O76061): the log2 fold change is inactive: -0.023.
As for SPATS2 (UniProt Q86XZ4), the log2 fold change was inactive: -0.126.
Take STAT2 (UniProt P52630): the log2 fold change is inactive: 0.081.
In the case of SRCAP (UniProt Q6ZRS2), the log2 fold change was inactive: 0.039.
Take SPATA33 isoform 2 (UniProt Q96N06): the log2 fold change is inactive: 0.04.
The same measure, in the same setting: the result for SPINT1 (UniProt O43278) reads inactive: 0.036.
On the same count and under the same terms, the result for STIM2 isoform 2 (UniProt Q9P246) reads inactive: 0.012.
For the target SREBF2 (UniProt Q12772), the log2 fold change was inactive: 0.044.

Compound in the next experiment: C/C(=N\NC(=O)C1=CC(=CC=C1)S(=O)(=O)N2CCOCC2)/C3=C(C=CC(=C3)Cl)O
The description is as above. The essentials: as §1
With SSX1 (UniProt Q16384), the log2 fold change was inactive: -0.113.
Turning to SRCIN1 (UniProt Q9C0H9), the log2 fold change was inactive: 0.03.
With SS18 (UniProt Q15532), the log2 fold change was inactive: -0.161.
Regarding SRD5A3 (UniProt Q9H8P0), the log2 fold change is inactive: -0.111.
Regarding SSBP4 (UniProt Q9BWG4), the log2 fold change was inactive: 0.076.
Consider SRXN1 (UniProt Q9BYN0), for which the log2 fold change was inactive: 0.335.
The same measure, in the same setting: the result for SPATS2L isoform 3 (UniProt Q9NUQ6) reads inactive: -0.314.
On to SPRED1 (UniProt Q7Z699), for which the log2 fold change was inactive: -0.074.
As to STAT2 (UniProt P52630), the log2 fold change is inactive: 0.038.
On the same count and under the same terms, the result for ST8SIA6 (UniProt P61647) reads inactive: -0.209; that for SPATA33 isoform 2 (UniProt Q96N06), inactive: 0.002.
Consider STK19 (UniProt P49842), for which the log2 fold change is inactive: 0.14.
The same measure, in the same setting: under STIM2 isoform 2 (UniProt Q9P246) stands inactive: 0.056; under SPATA31E1 (UniProt Q6ZUB1), inactive: -0.274; under SPRED2 (UniProt Q7Z698), inactive: 0.058.

Compound in a further experiment: C1=CC(=C(C=C1Cl)C2=NC3=NC=CN=C3C(=N2)NC4=CC=NC=C4)F
The description is as above. The essentials: as §1
As for SPIRE2 (UniProt Q8WWL2), the log2 fold change is inactive: -0.362.
Turning to SSX1 (UniProt Q16384), the log2 fold change was inactive: -0.302.
Consider SQOR (UniProt Q9Y6N5), for which the log2 fold change is inactive: -0.222.
In the case of SPTY2D1 (UniProt Q68D10), the log2 fold change was inactive: -0.02.
Take SPRR2B (UniProt P35325): the log2 fold change is inactive: 0.374.
For the target STK16 (UniProt O75716), the log2 fold change is inactive: 0.168.
Turning to STARD10 (UniProt Q9Y365), the log2 fold change was inactive: 0.185.
Same read-out and setting: the result for ST3GAL1 (UniProt Q11201) reads inactive: 0.031; that for SSBP2 (UniProt P81877), inactive: 0.043; that for SREBF1 isoform 4 (UniProt P36956), inactive: 0.045.
For STAB1 (UniProt Q9NY15), the log2 fold change is inactive: -0.321.
As for SRXN1 (UniProt Q9BYN0), the log2 fold change is inactive: 0.097.
Still for that read-out and setting: the result for SPATS2L isoform 3 (UniProt Q9NUQ6) reads inactive: -0.545; that for SPRED1 (UniProt Q7Z699), inactive: 0.005; that for SRGAP1 (UniProt Q7Z6B7), inactive: -0.044.
Same read-out and setting: the result for SPINT1 (UniProt O43278) reads inactive: -0.046.
Take STIM2 isoform 2 (UniProt Q9P246): the log2 fold change is inactive: -0.134.
As to SRBD1 (UniProt Q8N5C6), the log2 fold change was inactive: -0.055.
Take SREBF2 (UniProt Q12772): the log2 fold change is inactive: 0.059.

Compound in another experiment: C1=CC(=CC=C1C2=NC3=C(N2)C=C(C=C3)C(=O)N)OC4=CC=C(C=C4)Cl
The experiment is described as above. The essentials: as §1
As for STK17B (UniProt O94768), the log2 fold change is inactive: 0.072.
For SQOR (UniProt Q9Y6N5), the log2 fold change was inactive: 0.134.
On to SRCIN1 (UniProt Q9C0H9), for which the log2 fold change is inactive: -0.019.
For the target SS18 (UniProt Q15532), the log2 fold change was inactive: -0.06.
SRD5A3 (UniProt Q9H8P0): the log2 fold change was inactive: 0.035.
On to SPRR2B (UniProt P35325), for which the log2 fold change is inactive: -0.275.
The same measure, in the same setting: the result for STK16 (UniProt O75716) reads inactive: 0.171; that for STARD10 (UniProt Q9Y365), inactive: 0.151; that for SSBP4 (UniProt Q9BWG4), inactive: 0.043.
Consider SREBF1 isoform 4 (UniProt P36956), for which the log2 fold change is inactive: 0.001.
Same read-out and setting: under STAB1 (UniProt Q9NY15) stands inactive: -0.025; under SPIN4 (UniProt Q56A73), inactive: 0.116; under SPPL3 (UniProt Q8TCT6), inactive: 0.113.
Same read-out and setting: under SPDL1 (UniProt Q96EA4) stands inactive: -0.102.
As to STC2 (UniProt O76061), the log2 fold change is inactive: -0.052.
The same measure, in the same setting: the result for SPATS2 (UniProt Q86XZ4) reads inactive: -0.159; that for STAT2 (UniProt P52630), inactive: 0.
With SRCAP (UniProt Q6ZRS2), the log2 fold change was inactive: 0.031.
Take SPATA33 isoform 2 (UniProt Q96N06): the log2 fold change is inactive: 0.012.
As to SPINT1 (UniProt O43278), the log2 fold change is inactive: -0.007.
For the target STIM2 isoform 2 (UniProt Q9P246), the log2 fold change was inactive: 0.017.
Take SREBF2 (UniProt Q12772): the log2 fold change is inactive: -0.065.
